The source of these data is patent publication US20100150948A1, “MATERIALS AND METHODS FOR IMPROVED IMMUNOGLYCOPROTEINS” (TRUBION PHARMACEUTICALS, INC., priority 2006, published 2010).

For the series, the system named is CHO cells transfected with TRU-016. The experiment in a line: Effect of castanospermine concentration on cell viability, density and specific protein production of TRU-016. It counts as cell-based, Chinese hamster. As to conditions: duplicate flasks. The method, then:
Prior to initiation of the experiments, CHO cells transfected with TRU-016 were grown in shake flasks in Ex-Cell™ 302 CHO serum-free media (SAFC Biosciences) supplemented with 1× non-essential amino acids (MediaTech), 1× sodium pyruvate (MediaTech), 4 mM L-glutamine (MediaTech), 500 nM methotrexate (MP Biomedicals) and 1 mg/L recombinant insulin (Recombulin—GIBCO/Invitrogen Corp.) at 37° C. and 5% carbon dioxide in a humidified incubator. A 200 mM stock concentration of castanospermine (Alexis Biochemicals) was prepared by dilution of the castanospermine in sterile, distilled/deionized water (MediaTech) and filtration through a 13 mm Acrodisc® with a 0.2 μm HT Tuffryn membrane (Pall Corporation). Stock solution was aliquoted into sterile, O-ringed, 0.5 mL microcentrifuge tubes (Fisherbrand, Fisher Scientific) and frozen at −20° C. Approximately 1 hour prior to initiation of experiments, needed aliquots were thawed at room temperature and the contents of each vial mixed well by vortexing.
For each experiment, cells in log phase growth were seeded in the above medium into a total volume of 60 mL in 250 mL shaker flasks at a density of 200,000 cells/mL and CS added at the concentration to be tested. Final CS concentrations of 800 μM, 400 μM, 200 μM, 100 μM, 50 μM, 25 μM and 0 μM were each tested in duplicate flasks. All cultures were incubated at 37° C. and 5% carbon dioxide in a humidified incubator and monitored at least every other day for viable cell density and overall cell viability.
Cultures were harvested on day 8 when overall cell viability was 50-70% (Expt. 1) and 30-50% (Expt. 2). Cells and cellular debris were removed by centrifugation in a Sorvall Super T21 at 3000 rpm for 20 minutes after which the supernatant was sterile filtered through a Millipore Steriflip unit with a 0.22 μm Millipore Express Plus membrane and stored at 2-8° C. until purification.

“And” between values parts separate entries of the source, which are not always exact repeats. Equal values may be shown once.

For the molecule `O[C@H]1[C@H](O)[C@@H](O)CN2CC[C@H](O)[C@H]12` [castanospermine], the “Specific Productivity (pg/cell/day)” value (CS 25 μM, listed as CS) is 8.22 pg/cell/day and 8.78 pg/cell/day; the “Specific Productivity (pg/cell/day)” value (CS 50 μM, listed as CS) was 8.15 pg/cell/day and 8.27 pg/cell/day; the “Specific Productivity (pg/cell/day)” value (CS 100 μM, listed as CS) was 7.48 pg/cell/day and 7.49 pg/cell/day; the “Specific Productivity (pg/cell/day)” value (CS 200 μM, listed as CS) was 6.60 pg/cell/day and 6.47 pg/cell/day; the “Specific Productivity (pg/cell/day)” value (CS 400 μM) came out at 5.48 pg/cell/day; the “Specific Productivity (pg/cell/day)” value (CS 400 μM, listed as CS) is 5.53 pg/cell/day. The “Specific Productivity (pg/cell/day)” value (CS 800 μM, listed as CS) is 3.99 pg/cell/day and 4.36 pg/cell/day.
